Measured values reported in the supplement of paper PMC6411743.
± gives the standard deviation of the averaged measurements. This is one part of the list.

Target: T1, E9PGC5 and related entries (UniProt Q15262)
T1 sequence (whole entry): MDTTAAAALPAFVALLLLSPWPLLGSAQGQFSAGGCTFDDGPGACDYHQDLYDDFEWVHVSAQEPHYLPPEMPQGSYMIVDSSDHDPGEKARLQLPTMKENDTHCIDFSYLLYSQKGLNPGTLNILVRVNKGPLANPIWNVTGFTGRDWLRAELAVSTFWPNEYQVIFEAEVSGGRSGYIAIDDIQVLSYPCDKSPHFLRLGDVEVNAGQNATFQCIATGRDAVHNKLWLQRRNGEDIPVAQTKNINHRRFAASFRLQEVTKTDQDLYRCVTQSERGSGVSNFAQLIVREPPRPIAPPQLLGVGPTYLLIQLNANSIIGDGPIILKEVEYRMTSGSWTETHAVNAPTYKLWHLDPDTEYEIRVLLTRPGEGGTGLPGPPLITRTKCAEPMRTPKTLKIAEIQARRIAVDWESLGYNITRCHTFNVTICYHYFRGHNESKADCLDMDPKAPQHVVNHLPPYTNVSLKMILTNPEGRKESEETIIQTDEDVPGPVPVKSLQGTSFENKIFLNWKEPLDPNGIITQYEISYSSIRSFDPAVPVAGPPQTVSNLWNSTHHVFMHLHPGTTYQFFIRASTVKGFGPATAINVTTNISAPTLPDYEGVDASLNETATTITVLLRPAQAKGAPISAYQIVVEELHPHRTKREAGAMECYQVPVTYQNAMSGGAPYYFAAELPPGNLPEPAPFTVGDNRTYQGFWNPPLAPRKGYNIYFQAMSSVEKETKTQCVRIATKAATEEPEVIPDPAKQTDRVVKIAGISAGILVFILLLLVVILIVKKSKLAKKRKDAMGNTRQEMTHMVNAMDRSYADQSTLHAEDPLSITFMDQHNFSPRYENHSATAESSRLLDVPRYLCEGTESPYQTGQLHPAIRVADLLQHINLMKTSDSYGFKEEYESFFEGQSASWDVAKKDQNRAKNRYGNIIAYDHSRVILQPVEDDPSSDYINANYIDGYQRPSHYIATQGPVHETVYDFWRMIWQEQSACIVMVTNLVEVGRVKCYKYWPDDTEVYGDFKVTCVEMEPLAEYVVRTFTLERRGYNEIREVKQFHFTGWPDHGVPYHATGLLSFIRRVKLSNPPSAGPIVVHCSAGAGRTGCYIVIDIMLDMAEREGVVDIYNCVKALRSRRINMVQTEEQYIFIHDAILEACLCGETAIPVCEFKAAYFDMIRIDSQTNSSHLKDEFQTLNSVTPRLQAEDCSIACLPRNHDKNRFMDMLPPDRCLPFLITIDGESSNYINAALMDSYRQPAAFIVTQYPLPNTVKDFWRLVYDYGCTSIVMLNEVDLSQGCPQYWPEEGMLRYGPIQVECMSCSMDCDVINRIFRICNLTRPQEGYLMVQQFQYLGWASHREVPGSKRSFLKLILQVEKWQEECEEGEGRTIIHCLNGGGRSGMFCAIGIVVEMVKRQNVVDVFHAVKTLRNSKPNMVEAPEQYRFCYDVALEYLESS
Experiment: NP40-soluble protein abundance relative to vehicle (solubility fold change) (ratio); higher = more soluble protein in presence of GTP
Protocol: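 Solubility proteome profiling in Jurkat crude lysate. Lysate was treated with Mg-GTP (0.1-10 mM) for 10 min at room temperature and 3 min at 37 °C, then solubilised with 0.8% NP40 and benzonase, followed by ultracentrifugation. Proteins were quantified by TMT10 LC-MS/MS; the value is the NP40-soluble abundance relative to the NP40-processed vehicle, from 3 independent experiments.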

Nc1nc2c(ncn2[C@@H]2O[C@H](COP(=O)(O)OP(=O)(O)OP(=O)(O)O)[C@@H](O)[C@H]2O)c(=O)[nH]1 [guanosine triphosphate]
NP40-soluble protein abundance (concentration: 0.1mM): 0.9978 ± 0.0079
NP40-soluble protein abundance (concentration: 0.5mM): 0.975 ± 0.018
NP40-soluble protein abundance (concentration: 1mM): 0.992 ± 0.033
NP40-soluble protein abundance (concentration: 2mM): 0.98 ± 0.035
NP40-soluble protein abundance (concentration: 4mM): 0.978 ± 0.022
NP40-soluble protein abundance (concentration: 6mM): 0.92 ± 0.023
NP40-soluble protein abundance (concentration: 8mM): 0.958 ± 0.018
NP40-soluble protein abundance (concentration: 10mM): 0.942 ± 0.021
